These results are taken from publication PMC5440498.

Construct, isoform or probe ends are uncertain for at least one entry. At least one result comes from cells or an extract, where the contact may be indirect. For part of these data: Negatives hold for the conditions tested. For part of these data: The comparison behind a weaker result is the experiment's own reference, which may not be listed here.

The test system of series [1] is His-MBP-eYFP-PRDM9Cst-ZnF. In words: competition with a labelled probe. Particulars: EMSA (chimeras): 10 mM Tris-HCl pH 7.5, 50 mM KCl, 1 mM DTT, 50 ng/ul polydIdC, 0.05% NP-40, 50 uM ZnCl2, protein in a lysate after overexpression, protein details: His-MBP-eYFP.
The target of series [2] is PRDM9Cst-ZnF (YFP presence not stated for this assay) (UniProt W0TX95). In words: switchSENSE. To be noted: 5' thiol (HSC6) on strand 1, protein in a lysate after overexpression, protein details: His-MBP, with or without eYFP, label: 3' fluorescent dye on strand 1.
Series [3] has the same target. In words: EMSA. Particulars: titrated low polydIdC, 0.03% sarcosyl, ~90 h; EMSA (chimeras): 10 mM Tris-HCl pH 7.5, 50 mM KCl, 1 mM DTT, 50 ng/ul polydIdC, 0.05% NP-40, 50 uM ZnCl2; protein in a lysate after overexpression; protein details: His-MBP, with or without eYFP; label: 5' biotin. A general note: Mobility shift assays separate free from complexed probe on a gel.

The target is the same in series [4]. The experiment in a line: competition with a labelled probe. Particulars: 100-fold excess added simultaneously with 75 bp hot Hlx1 B6; EMSA (chimeras): 10 mM Tris-HCl pH 7.5, 50 mM KCl, 1 mM DTT, 50 ng/ul polydIdC, 0.05% NP-40, 50 uM ZnCl2; protein in a lysate after overexpression; protein details: His-MBP, with or without eYFP.
[5] abbreviates: significantly reduced versus 31 bp or longer.

For the sequence “AATAGTGTGCAGACTTGGACCCTGCCCTTTCTTT (double strand) [cold Hlx1 B6 34 bp]”, in series [1] (similar to 31 bp, weaker than 75 bp), the binding result is listed as “binds”.
“AGTGTGCAGACTTGGACCCTGCCCTTTC (double strand) [cold Hlx1 B6 28 bp-d]”: the binding result in series [1] (setting [5]) is “binds more weakly”.
On to “AGTGTGCAGACTTGGACCCTGCCCTTTCTTT (double strand) [cold Hlx1 B6 31 bp]”, for which, in series [1] (similar to 34 bp, weaker than 75 bp), the binding result is recorded as “binds”.
On to “CTGCCTAAAGGTCAGAATCCACCATAGTGAGAGATAGCAAGTGCTGCT (double strand) [usDNA 48 bp]”, for which the binding result in series [2] (50 ng/ul polydIdC, up to 1250 nM protein) is “no binding”.
Broadly, the Kd is the free concentration of one partner at which half of the binding sites on the other are occupied at equilibrium, for simple one-to-one binding. Lower therefore signals higher affinity. “GATGGTGGGTGAATAGTGTGCAGACTTGGACCCTGCCCTTTCTTTACG (double strand) [Hlx1 B6 48 bp]”: the Kd is 160 nM in series [2] (50 ng/ul polydIdC, kon 135 M-1 s-1, koff 2.2e-5 s-1); 15.7 nM in series [2] (titrated low polydIdC, kon 725 M-1 s-1, koff 1.1e-5 s-1); 7.2 nM in series [2] (titrated low polydIdC, kon 1908 M-1 s-1, koff 1.4e-5 s-1).
“GTGCAGACTTGGACCCTGCCCTTTCTTT (double strand) [cold Hlx1 B6 28 bp-u]”: the binding result in series [1] (setting [5]) is given as “binds more weakly”.
The sequence “GTGGGAGGAGATGGTGGGTGAATAGTGTGCAGACTTGGACCCTGCCCTTTCTTTACGCATTCCACTAACCATGGG (double strand) [Hlx1 B6 75 bp (hot)]” returned a Kd in series [3] of 24.5 nM.
For the sequence “GTGGGAGGAGATGGTGGGTGAATAGTGTGCAGACTTGGACCCTGCCCTTTCTTTACGCATTCCACTAACCATGGG (double strand) [cold Hlx1 B6 75 bp]”, the binding result in series [1] (strongest competitor, significantly better than 31 and 34 bp) is given as “binds”.
For the sequence “TGAATAGTGTGCAGACTTGGACCCTGCCCTTTCTTTACG (double strand) [cold Hlx1 B6 39 bp]”, the binding result is given as “binds” in series [4]; “binds” in series [1] (stronger than 31 and 34 bp).
